pIC50: −log10 of the molar value. Counter-ions that a name gives are not always drawn. Some results were stated once for a whole list of compounds, not compound by compound.
The compounds below were run against human NK1R (Homo sapiens, UniProt P25103) (assay: human NK1R assay: radiolabelled substance P binding). Settings: radiolabelled substance P binding to human NK1R; method of EP 0 528 495; read-out: IC50 (concentration of the test compound required to reduce by 50% the amount of radiolabelled substance P binding to human NK1R).

Chains of the proteins cited; added tags and fusions are not shown.
UniProt P25103, whole entry: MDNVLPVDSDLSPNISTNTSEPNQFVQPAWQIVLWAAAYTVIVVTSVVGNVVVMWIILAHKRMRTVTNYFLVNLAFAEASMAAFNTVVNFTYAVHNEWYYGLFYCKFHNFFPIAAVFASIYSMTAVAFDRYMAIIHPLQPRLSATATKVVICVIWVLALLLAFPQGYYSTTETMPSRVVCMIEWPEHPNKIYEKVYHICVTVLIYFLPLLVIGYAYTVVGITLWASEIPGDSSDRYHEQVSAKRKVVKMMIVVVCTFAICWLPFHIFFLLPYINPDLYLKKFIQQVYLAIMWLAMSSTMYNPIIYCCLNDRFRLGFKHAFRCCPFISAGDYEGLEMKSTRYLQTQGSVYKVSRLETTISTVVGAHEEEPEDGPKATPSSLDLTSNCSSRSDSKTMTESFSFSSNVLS

pIC50, > 7.00:
Nc1noc(CNC(COCc2cc(C(F)(F)F)cc(C(F)(F)F)c2)C(c2ccccc2)c2ccccc2)n1 (stereo not drawn) [Example 1, 2-((3-amino-1,2,4-oxadiazol-5-yl)methyl) ammonium-1-((3',5'-bis(trifluoromethyl)phenyl)methyloxy)-3,3-diphenylpropane bis oxalate salt]
Nc1noc(CN[C@H](COCc2cc(C(F)(F)F)cc(C(F)(F)F)c2)c2ccccc2)n1 [Example 2, (2S)-2-((3-amino-1,2,4-oxadiazol-5-yl)methylamino)-1-((3',5'-bis(trifluoromethyl)phenyl)methyloxy)-2-phenylethane]
CN(Cc1nc[nH]n1)C(COCc1cc(C(F)(F)F)cc(C(F)(F)F)c1)C(c1ccccc1)c1ccccc1 (stereo not drawn) [Example 4, 1-((3,5-Bis(trifluoromethyl)phenyl)methyloxy)-3,3-diphenyl-2-(N-(1,2,4-triazol-3-yl)methyl-N-methylamino) propane]
CN(Cc1n[nH]c(=S)[nH]1)C(COCc1cc(C(F)(F)F)cc(C(F)(F)F)c1)C(c1ccccc1)c1ccccc1 (stereo not drawn) [Example 5, 1-((3,5-Bis(trifluoromethyl)phenyl)methyloxy)-2-{N-((3-thioxo-1,2,4-triazol-5-yl)methyl)-N-methylamino}-3,3-diphenylpropane]
CN(Cc1n[nH]c(=O)[nH]1)C(COCc1cc(C(F)(F)F)cc(C(F)(F)F)c1)C(c1ccccc1)c1ccccc1 (stereo not drawn) [Example 9, 5-[((N-(1-((3,5-Bis(trifluoromethyl)phenyl)methyloxy)-3,3-diphenylprop-2-yl)-N-methyl)amino)methyl]-2,3-dihydro-4H-1,2,4-triazol-3-one]
O=c1[nH]nc(CNC(COCc2cc(C(F)(F)F)cc(C(F)(F)F)c2)C(c2ccccc2)c2ccccc2)[nH]1 (stereo not drawn) [Example 10, 5-[(N-(1-((3,5-Bis(trifluoromethyl)phenyl)methyloxy)-3,3-diphenylprop-2-yl)amino)methyl]-2,3-dihydro-4H-1,2,4-triazol-3-one]

Source: patent US5494926A, “2/3-(heterocyclic alkyl amino)-1-(subst.-phenyl-methoxy)-ethanes/propanes as tachykinin-receptor antagonists” (Merck Sharp & Dohme Ltd., priority 1992, dated 1996)
